Measurements reported in PubChem BioAssay AID2685 (National Center for Advancing Translational Sciences (NCATS), 2010).
Some of the results follow. The main result of the screen is listed elsewhere. These columns were measured beside it and carry no call. The list favours compounds with an active or inconclusive main result. The note in brackets gives the kind of curve behind each potency; many fits are weak.

Assay: qHTS Assay for Lipid Storage Modulators in Drosophila S3 Cells;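 for cell number change: cells counted by Cell Tracker Red CMTPX staining in the red channel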
Details: BODIPY lipid droplet fluorescence, 18-24 h; for cell number change: measured here: cell count max response, cells fed with added oleic acid
Outline: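 Laser-scanning cytometry quantifies lipid droplet accumulation (500–530 nm total intensity; droplet/cell object ratio) in oleic acid-fed (400 uM added) Drosophila S3 cells treated with a concentration series. 20 uM Triacsin C defined 100% inhibition.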

[1] = measured here: cell number channel AC50, cells fed with added oleic acid
[2] = measured here: lipid fluorescence (Fed channel) AC50, cells fed with added oleic acid

Row | SMILES | cell number change | AC50 [1] | AC50 [2]
1 | O=C1OCCC/C1=C\c1ccc2c(c1)OCO2 | 32.3% | 23.1 µM [rising, single point] | –
2 | S=C(Nc1cccc(Br)c1)c1ccccc1 | 8.39% | – | 29.1 µM [rising, single point]
3 | COC(=O)c1c(NC(=O)C(C)C)sc(C(=O)N2CCOCC2)c1C | -3.95% | – | 0.1 µM [falling, full curve, poor fit]
4 | C=CCOc1nc2c(c(=O)n(C)c(=O)n2C)n1Cc1ccc(Cl)cc1Cl | – | 0.231 µM [rising, full curve] | –
5 | CCOC(=O)N1CCC(N(CCN(C)C)C(=S)Nc2ccc(F)c(Cl)c2)CC1 | 50.1% | 29.1 µM [rising, partial curve, poor fit] | 29.1 µM [rising, single point]
6 | COc1cc2[nH]c(C(=O)N3CCC(Cc4ccccc4)CC3)cc2c(OC)c1OC | – | – | 0.58 µM [rising, single point]
7 | COc1ccc(Cl)cc1NC(=O)C1CCCO1 (configuration not stated) | 4.21% | – | –
8 | C=C(C)Cn1c(=O)c2c(nc3n2CC(C)CN3Cc2ccccc2)n(C)c1=O (configuration not stated) | 6.12% | – | 2.31 µM [rising, single point]
9 | CCOC(=O)c1ccccc1NC(=O)/C=C/c1cc(OC)c(OC)c(OC)c1 | 12.2% | – | 0.58 µM [rising, single point]
10 | Cc1ccccc1NCN1C(=O)C2C3C=CC(C3)C2C1=O (configuration not stated) | 3.9% | – | 1.46 µM [falling, full curve, poor fit]
11 | CC(C)C(=O)NC(c1cccc([N+](=O)[O-])c1)c1ccc2cccnc2c1O (configuration not stated) | -21.2% | – | 29.1 µM [falling, single point]
12 | O=C(Cc1ccccc1[N+](=O)[O-])NCCCc1ccccc1 | 17.3% | – | 29.1 µM [rising, single point]
13 | Cc1ccc(N2C(=O)C3CC(c4ccccc4)=C4C5C=CC(C6C(=O)N(c7ccc(C)cc7C)C(=O)C56)C4C3C2=O)c(C)c1 (configuration not stated) | – | 1.64 µM [rising, partial curve, poor fit] | 1.46 µM [rising, partial curve]
14 | CC(=O)N1CCOc2cc(S(=O)(=O)Nc3c(C)cccc3C(C)C)c(Cl)cc21 | 10.4% | – | 0.164 µM [rising, full curve, poor fit]
15 | COc1ccc(N=c2cc(-c3ccc(OC)cc3)oc3ccccc23)cc1 | -52.8% | 23.1 µM [falling, single point] | 29.1 µM [falling, single point]
16 | Cc1ccccc1Cn1c(=O)n(C)c(=O)c2sccc21 | -36% | – | –
17 | CCOC(=O)C1=C(C)N(c2ccccc2)C(=O)/C1=C\c1ccc(O)c(OC)c1 | -51.8% | 16.4 µM [falling, single point] | 25.9 µM [falling, single point]
18 | COc1ccc(Nc2nc(-c3ccccc3)cs2)cc1 | 20.6% | 0.92 µM [rising, full curve] | 1.03 µM [rising, full curve]
19 | O=C(Nc1cccnc1)NC1CCCCC1 | -19% | – | 5.17 µM [falling, single point]
20 | O=C(c1ccc(-c2ccccc2)c(F)c1)C1CCCN(C(=O)c2cncs2)C1 (configuration not stated) | -23.1% | – | 29.1 µM [falling, single point]

Row | SMILES | cell number change | AC50 [1] | AC50 [2]
21 | Oc1ccc(Cc2ncc(C(F)(F)F)cc2Cl)cc1 | 3.13% | 0.00517 µM [falling, full curve, poor fit] | 0.00517 µM [falling, full curve, poor fit]
22 | Cc1ccc2nc(-c3ccncc3)cc(C(=O)Nc3ccncc3)c2c1 | 7.11% | 7.31 µM [rising, partial curve, poor fit] | 0.259 µM [rising, full curve, poor fit]
23 | CN(CC(=O)NCc1cccnc1)S(=O)(=O)c1cc(Cl)ccc1Cl | – | 0.92 µM [rising, full curve] | –
24 | O=[N+]([O-])c1cccc(S(=O)(=O)N2CCN(S(=O)(=O)N3CCCCCC3)CC2)c1 | -0.451% | – | –
25 | Cc1ccc(-c2nc(CS(=O)CC(=O)N3CCN(c4ccc(F)cc4)CC3)c(C)o2)cc1 (configuration not stated) | -43.5% | 29.1 µM [falling, single point] | –
26 | OCc1cccc(Nc2ncnc3sc4c(c23)CCCCC4)c1 | 9.4% | – | 0.731 µM [rising, single point]
27 | O=C(NC1CCCCC1)c1cc(-c2ccc(F)cc2)on1 | – | – | 29.1 µM [falling, single point]
28 | Cc1nc(CSc2ccccc2)cc(=O)[nH]1 | -15.4% | 4.11 µM [falling, partial curve, poor fit] | 2.31 µM [falling, partial curve]
29 | O=C1/C(=C/c2ccc(O)cc2)COc2ccccc21 | 5.56% | – | 0.731 µM [falling, full curve, poor fit]
30 | OCC1(Cc2ccc(F)cc2)CCCN(Cc2ccc(F)cc2Cl)C1 (configuration not stated) | -12.6% | – | –
31 | COc1ccc2c(c1OC)C(=O)N1C2SC[C@H]1C(=O)NC1CC(C)(C)NC(C)(C)C1 (some centres not stated) | -37.4% | 20.6 µM [falling, single point] | 29.1 µM [falling, single point]
32 | Cc1cc(N2CCCCC2)nc(N2CCCCC2)n1 | 6.63% | – | 1.03 µM [rising, single point]
33 | NC(=O)COc1ccc(NC(=O)OCc2ccccc2)cc1 | 83.9% | – | –
34 | O=C(COC(=O)c1ccc2ncsc2c1)Nc1cc([N+](=O)[O-])ccc1Cl | -47.4% | 10.3 µM [falling, partial curve] | 29.1 µM [falling, single point]
35 | COc1ccc(CN2C(=O)c3cccnc3C2=O)cc1S(=O)(=O)N1CCCCC1 | – | – | 11.6 µM [falling, single point]
36 | CSc1cccc(NC(=O)CN(C)S(=O)(=O)c2cnc[nH]2)c1 | – | – | 0.58 µM [rising, single point]
37 | O=C(OCC(=O)N1CCN(c2ccccc2)CC1)c1ccc[n+]([O-])c1 | 16.4% | – | 14.1 µM [rising, single point]
38 | Cc1c(-c2ncn[nH]2)sc(C#N)c1-c1ccccc1 | 65.6% | 23.1 µM [rising, single point] | 6.51 µM [falling, partial curve]
39 | O=C(COC(=O)c1cc(=O)c2ccccc2o1)Nc1cc(Cl)ccc1Cl | 12.1% | 0.116 µM [rising, partial curve, poor fit] | –
40 | COc1ccc(C2(C)NC(=O)N(Cc3cc(Cl)cc4c3OCOC4)C2=O)cc1OC (configuration not stated) | -18.4% | – | 0.651 µM [rising, single point]

Row | SMILES | cell number change | AC50 [1] | AC50 [2]
41 | COc1ccc(NC(=O)CCN2CCN(S(=O)(=O)c3cc(Cl)ccc3OC)CC2)cc1 | 77.3% | 16.4 µM [rising, partial curve] | –
42 | Cc1ccccc1Nc1nc(N)nc(COC(=O)c2ccc(S(=O)(=O)N(C)C)cc2)n1 | -0.883% | – | 1.64 µM [rising, partial curve]
43 | O=C(NNC(=O)c1ccc(Cl)s1)c1csc(N2CCOCC2)n1 | 85.2% | 29.1 µM [rising, single point] | –
44 | Cc1cc(C)n(CC(=O)c2cccc(N)c2)n1 | 176% | – | –
45 | O=C1CN(C(=O)CSc2nc3ccccc3n2CCc2ccccc2)c2ccccc2N1 | 11.5% | – | –
46 | Cc1cccc(Sc2ccc([N+](=O)[O-])cc2[N+](=O)[O-])n1 | – | – | 29.1 µM [falling, single point]
47 | O=C(COc1ccc2oc(-c3ccccc3)cc(=O)c2c1)NCc1ccco1 | -82.4% | 14.6 µM [falling, partial curve] | 20.6 µM [falling, partial curve, poor fit]
48 | COC(=O)c1ccc(-c2sc3nc(N4CCOCC4)c4c(c3c2N)CCCC4)o1 | 49.8% | 0.082 µM [rising, full curve] | 0.116 µM [rising, full curve]
49 | Nc1ccc(Br)cc1-c1nc2ccccc2[nH]c1=O | -10.9% | – | 0.00411 µM [rising, full curve, poor fit]
50 | N#Cc1nc(-c2ccc(OCc3ccccc3)cc2)oc1N1CCOCC1 | 17.7% | – | 29.1 µM [rising, partial curve, poor fit]
51 | Cc1cc(N2CCCCCC2)nc2ccccc12 | -19.3% | – | 0.0058 µM [falling, full curve, poor fit]
52 | CC1CN(C(=O)COC(=O)c2cccs2)CC(C)O1 (configuration not stated) | -15.2% | – | 16.4 µM [falling, partial curve]
53 | O=Cc1c(NCCc2ccc(F)cc2)c2ccccc2[nH]c1=O | 23.3% | – | 23.1 µM [falling, single point]
54 | CCOC(=O)CNC(=O)c1cnc(Nc2ccccc2OC)c2ccccc12 | 28.4% | – | –
55 | COCCCN=C1NN=C(c2cc(C)n(-c3ccccc3)c2C)CS1 | 16.2% | – | 2.59 µM [rising, single point]
56 | O=C(Nc1cccc(-n2cnnn2)c1)c1ccc(Cl)cc1Cl | -73.6% | 25.9 µM [falling, single point] | 29.1 µM [falling, single point]
57 | O=c1oc2ccccc2c2c1ncn2-c1ccccc1 | -10.6% | – | 0.731 µM [falling, full curve, poor fit]
58 | CSc1nnc(-c2ccccc2)c(=O)[nH]1 | -0.0698% | – | –
59 | CCOC(=O)N1CCN(C(=O)c2ccc3c(=O)n(CC4CCCO4)c(=S)[nH]c3c2)CC1 (configuration not stated) | 5.12% | – | –
60 | COc1nccnc1NS(=O)(=O)c1ccc(NC(=O)c2cccc(C)c2)cc1 | -19.8% | 4.61 µM [falling, single point] | 3.26 µM [falling, full curve]

Some values from the entries so far:
cell number change, COc1ccc(Cl)cc1NC(=O)C1CCCO1 (configuration not stated) is entered as 4.21%
AC50 [2], COc1cc2[nH]c(C(=O)N3CCC(Cc4ccccc4)CC3)cc2c(OC)c1OC is entered as 0.58 µM [rising, single point]
